# Assay results taken from doi:10.1101/2023.05.30.542914 (bioRxiv, 2023).
# These are yes or no findings as the source states them, for the method shown. Binding seen in cells or lysates may run through a third protein. Some entries that bind do so weakly or less than the wild type. For part of these data: Sequences can lack the tags named with a protein.
# T1: COPB2 (human (endogenous in HEK293T)) (UniProt P35606)
# T1 sequence: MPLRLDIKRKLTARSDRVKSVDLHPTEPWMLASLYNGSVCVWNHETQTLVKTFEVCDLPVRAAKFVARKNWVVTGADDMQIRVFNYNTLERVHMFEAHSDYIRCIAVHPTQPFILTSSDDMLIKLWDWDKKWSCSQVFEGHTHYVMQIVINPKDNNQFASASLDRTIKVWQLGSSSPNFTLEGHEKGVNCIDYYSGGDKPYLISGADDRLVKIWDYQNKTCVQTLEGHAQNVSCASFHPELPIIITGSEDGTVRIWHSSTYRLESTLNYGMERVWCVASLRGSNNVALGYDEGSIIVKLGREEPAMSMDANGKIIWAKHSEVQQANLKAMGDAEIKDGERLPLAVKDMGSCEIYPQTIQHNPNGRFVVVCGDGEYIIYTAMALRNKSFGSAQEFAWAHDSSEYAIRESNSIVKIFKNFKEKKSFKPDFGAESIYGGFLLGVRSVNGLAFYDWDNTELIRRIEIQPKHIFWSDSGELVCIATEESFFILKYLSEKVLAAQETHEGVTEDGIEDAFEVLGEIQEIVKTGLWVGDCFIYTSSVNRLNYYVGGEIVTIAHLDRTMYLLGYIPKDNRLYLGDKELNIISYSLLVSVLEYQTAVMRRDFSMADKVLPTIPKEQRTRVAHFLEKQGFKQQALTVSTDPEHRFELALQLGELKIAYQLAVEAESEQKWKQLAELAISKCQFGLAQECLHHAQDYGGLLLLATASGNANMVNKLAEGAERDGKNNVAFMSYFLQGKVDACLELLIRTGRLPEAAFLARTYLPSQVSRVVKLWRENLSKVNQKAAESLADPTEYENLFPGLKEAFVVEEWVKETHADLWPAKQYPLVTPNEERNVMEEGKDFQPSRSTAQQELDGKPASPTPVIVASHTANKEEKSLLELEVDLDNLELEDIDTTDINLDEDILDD
# T2: Wnt7a-HA, full length (Wnt7a-FL) (human) (UniProt O00755)
# T2 sequence: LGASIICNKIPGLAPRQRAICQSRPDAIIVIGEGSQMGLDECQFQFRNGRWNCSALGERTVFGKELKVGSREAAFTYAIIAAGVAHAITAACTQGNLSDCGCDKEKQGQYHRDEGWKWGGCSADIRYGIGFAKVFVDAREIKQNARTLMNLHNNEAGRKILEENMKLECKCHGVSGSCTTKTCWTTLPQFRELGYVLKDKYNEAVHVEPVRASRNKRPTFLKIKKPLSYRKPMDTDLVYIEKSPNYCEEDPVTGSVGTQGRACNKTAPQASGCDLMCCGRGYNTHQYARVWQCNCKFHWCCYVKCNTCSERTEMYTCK
# T3: endogenous Wnt7a (human (endogenous in RPTEC-hTERT1)) (UniProt O00755)
# T3 sequence: T2 sequence
# T4: Wnt7a_ΔSP (human) (UniProt O00755)
# T4 sequence: T2 sequence
# B1: COPA (protein, UniProt P53621)
# chain: MLTKFETKSARVKGLSFHPKRPWILTSLHNGVIQLWDYRMCTLIDKFDEHDGPVRGIDFHKQQPLFVSGGDDYKIKVWNYKLRRCLFTLLGHLDYIRTTFFHHEYPWILSASDDQTIRVWNWQSRTCVCVLTGHNHYVMCAQFHPTEDLVVSASLDQTVRVWDISGLRKKNLSPGAVESDVRGITGVDLFGTTDAVVKHVLEGHDRGVNWAAFHPTMPLIVSGADDRQVKIWRMNESKAWEVDTCRGHYNNVSCAVFHPRQELILSNSEDKSIRVWDMSKRTGVQTFRRDHDRFWVLAAHPNLNLFAAGHDGGMIVFKLERERPAYAVHGNMLHYVKDRFLRQLDFNSSKDVAVMQLRSGSKFPVFNMSYNPAENAVLLCTRASNLENSTYDLYTIPKDADSQNPDAPEGKRSSGLTAVWVARNRFAVLDRMHSLLIKNLKNEITKKVQVPNCDEIFYAGTGNLLLRDADSITLFDVQQKRTLASVKISKVKYVIWSADMSHVALLAKHAIVICNRKLDALCNIHENIRVKSGAWDESGVFIYTTSNHIKYAVTTGDHGIIRTLDLPIYVTRVKGNNVYCLDRECRPRVLTIDPTEFKFKLALINRKYDEVLHMVRNAKLVGQSIIAYLQKKGYPEVALHFVKDEKTRFSLALECGNIEIALEAAKALDDKNCWEKLGEVALLQGNHQIVEMCYQRTKNFDKLSFLYLITGNLEKLRKMMKIAEIRKDMSGHYQNALYLGDVSERVRILKNCGQKSLAYLTAATHGLDEEAESLKETFDPEKETIPDIDPNAKLLQPPAPIMPLDTNWPLLTVSKGFFEGTIASKGKGGALAADIDIDTVGTEGWGEDAELQLDEDGFVEATEGLGDDALGKGQEEGGGWDVEEDLELPPELDISPGAAGGAEDGFFVPPTKGTSPTQIWCNNSQLPVDHILAGSFETAMRLLHDQVGVIQFGPYKQLFLQTYARGRTTYQALPCLPSMYGYPNRNWKDAGLKNGVPAVGLKLNDLIQRLQLCYQLTTVGKFEEAVEKFRSILLSVPLLVVDNKQEIAEAQQLITICREYIVGLSVETERKKLPKETLEQQKRICEMAAYFTHSNLQPVHMILVLRTALNLFFKLKNFKTAATFARRLLELGPKPEVAQQTRKILSACEKNPTDAYQLNYDMHNPFDICAASYRPIYRGKPVEKCPLSGACYSPEFKGQICRVTTVTEIGKDVIGLRISPLQFR
# What was measured:
# [1] = molecular target: T1, COPB2 (human (endogenous in HEK293T)); test: co-IP
# [2] = molecular target: T2, Wnt7a-HA, full length (Wnt7a-FL) (human); test: co-IP
# Wnt7a_ΔEBP*GSGS (human) = Wnt7a_ΔEBP*GSGS (human) (UniProt O00755); test: proximity ligation
# [3] = molecular target: T3, endogenous Wnt7a (human (endogenous in RPTEC-hTERT1)); test: proximity ligation
# [4] = molecular target: T2, Wnt7a-HA, full length (Wnt7a-FL) (human); test: proximity ligation
# Wnt7a_ΔSP (human) = molecular target: T4, Wnt7a_ΔSP (human); test: proximity ligation
binder,measurement,setting,value
B1,binding,[1],binds
same,binding,[2],binds
same,binding,Wnt7a_ΔEBP*GSGS (human),no binding
same,binding,[3],binds
same,binding,[4],binds
same,binding,Wnt7a_ΔSP (human),binds
